Experimental data from the supplement of paper PMC4604168 (melanoma cell lines).
The other results are listed elsewhere or left out. Many values rest on one well or one pass, so single values are uncertain.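 Cells were imaged in 1,536-well plates, and nuclei stained with an antibody against cleaved PARP were counted against all DNA-stained nuclei to give the apoptosis fraction. Screening doses were chosen to leave most cells alive, and resting and induced cleaved-PARP levels differ strongly between cell lines.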

Columns and labels:
Assay in all cases: cleaved PARP positive nuclei fraction relative to DMSO control; melanoma cells; higher = more apoptosis
Details in all cases: library dose: low library concentration; 72 h
COLO792 = system: COLO792
COLO800 = system: COLO800
COLO829 = system: COLO829
G361 = system: G361
IPC-298 = system: IPC-298
IST-MEL1 = system: IST-MEL1
LB2518-MEL = system: LB2518-MEL
LOXIMVI = system: LOXIMVI
MEL-HO = system: MEL-HO
MZ2-MEL = system: MZ2-MEL
MeWo = system: MeWo
RPMI7951 = system: RPMI7951
RVH-421 = system: RVH-421
SkMel28 = system: SkMel28
SkMel2 = system: SkMel2
SkMel30 = system: SkMel30
SkMel5 = system: SkMel5
UACC257 = system: UACC257
UACC62 = system: UACC62

| SMILES | cleaved PARP positive nuclei fraction (COLO792) [%] | cleaved PARP positive nuclei fraction (COLO800) [%] | cleaved PARP positive nuclei fraction (COLO829) [%] | cleaved PARP positive nuclei fraction (G361) [%] | cleaved PARP positive nuclei fraction (IPC-298) [%] | cleaved PARP positive nuclei fraction (IST-MEL1) [%] | cleaved PARP positive nuclei fraction (LB2518-MEL) [%] | cleaved PARP positive nuclei fraction (LOXIMVI) [%] | cleaved PARP positive nuclei fraction (MEL-HO) [%] | cleaved PARP positive nuclei fraction (MZ2-MEL) [%] | cleaved PARP positive nuclei fraction (MeWo) [%] | cleaved PARP positive nuclei fraction (RPMI7951) [%] | cleaved PARP positive nuclei fraction (RVH-421) [%] | cleaved PARP positive nuclei fraction (SkMel28) [%] | cleaved PARP positive nuclei fraction (SkMel2) [%] | cleaved PARP positive nuclei fraction (SkMel30) [%] | cleaved PARP positive nuclei fraction (SkMel5) [%] | cleaved PARP positive nuclei fraction (UACC257) [%] | cleaved PARP positive nuclei fraction (UACC62) [%] |
| --- | --- | --- | --- | --- | --- | --- | --- | --- | --- | --- | --- | --- | --- | --- | --- | --- | --- | --- | --- |
| C=CCn1c(=O)c2cnc(Nc3ccc(N4CCN(C)CC4)cc3)nc2n1-c1cccc(C(C)(C)O)n1 + NCC(=O)Nc1ccc(-n2nc(C(F)(F)F)cc2-c2ccc3c(ccc4ccccc43)c2)cc1 [OSU03012] (first compound 0.02 µM, partner dose 1 µM) | 120 | 93.2 | 111 | 68.8 | 31.5 | 51.1 | 90.7 | 176 | 70.6 | 134 | 1280 | 109 | 47.7 | 168 | 180 | 481 | 144 | 56.9 | 110 |
| NC(=O)Nc1cc(-c2cccc(F)c2)sc1C(=O)N[C@H]1CCCNC1 + Cc1cc(N2CCOCC2)cc2[nH]c(-c3c(NC[C@@H](O)c4cccc(Cl)c4)cc[nH]c3=O)nc12 [BMS536924] (first compound 0.02 µM, partner dose 0.2 µM) | 125 | 387 | 102 | 120 | 99 | 137 | 329 | 158 | 142 | 144 | 93.7 | 33.6 | 11.3 | 78.8 | 101 | 130 | 79.4 | 25.2 | 57.6 |
| Cn1c(Nc2ccc(C(F)(F)F)cc2)nc2cc(Oc3ccnc(-c4ncc(C(F)(F)F)[nH]4)c3)ccc21 + NCC(=O)Nc1ccc(-n2nc(C(F)(F)F)cc2-c2ccc3c(ccc4ccccc43)c2)cc1 [OSU03012] (first compound 0.08 µM, partner dose 1 µM) | 434 | 54.8 | 18.6 | 256 | 339 | 274 | 186 | 147 | 367 | 120 | 133 | 214 | 193 | 93.2 | 141 | 174 | 230 | 951 | 357 |
| OCc1c[nH]c2ccccc12 [Indole-3-carbinol] + O=C(O)c1ccc(-c2c[nH]c3ncc(-c4ccccc4)cc23)cc1C1CCCC1 [GSK650394] (first compound 0.8 µM, partner dose 0.16 µM) | 142 | 150 | 134 | 142 | 96.1 | 65 | 91.4 | 14.8 | 129 | 121 | 49.2 | 93.1 | 56.4 | 106 | 115 | 64.3 | 300 | 159 | 70.8 |
| Cn1nnc2c(C(N)=O)ncn2c1=O [temozolomide] + Cc1cc(N2CCOCC2)cc2[nH]c(-c3c(NC[C@@H](O)c4cccc(Cl)c4)cc[nH]c3=O)nc12 [BMS536924] (first compound 2 µM, partner dose 0.2 µM) | 135 | 137 | 142 | 124 | 217 | 164 | 42.7 | 35.3 | 70.8 | 219 | 75.4 | 117 | 68.9 | 33.4 | 41.1 | 320 | 139 | 86.1 | 53.7 |
| Cc1ccc(NC(=O)c2cccc(N(C)C)c2)cc1NC(=O)c1ccc(O)cc1 + NCC(=O)Nc1ccc(-n2nc(C(F)(F)F)cc2-c2ccc3c(ccc4ccccc43)c2)cc1 [OSU03012] (first compound 2 µM, partner dose 1 µM) | 113 | 266 | 149 | 98.5 | 139 | 70.3 | 151 | 22 | 18.6 | 155 | 633 | 41.5 | 112 | 47.6 | 112 | 492 | 56.3 | 382 | 248 |
| O=C(CCCCCCC(=O)Nc1ccccc1)NO [vorinostat] + COc1cc2c(Oc3ccc4[nH]c(C)cc4c3F)ncnc2cc1OCCCN1CCCC1 [cediranib] (first compound 0.08 µM, partner dose 0.4 µM) | 114 | 59.7 | 38.5 | 103 | 47.1 | 63.4 | 43.1 | 135 | 32.4 | 57.6 | 55.7 | 159 | 90.4 | 51 | 159 | 64.3 | 90.2 | 230 | 76 |
| Cc1nc(Nc2ncc(C(=O)Nc3c(C)cccc3Cl)s2)cc(N2CCN(CCO)CC2)n1 [dasatanib] + COc1cc(Nc2ncc(F)c(Nc3ccc4c(n3)NC(=O)C(C)(C)O4)n2)cc(OC)c1OC [Tamatinib] (first compound 0.004 µM, partner dose 0.4 µM) | 210 | 166 | 158 | 85.3 | 58.9 | 119 | 132 | 117 | 192 | 202 | 63.8 | 230 | 119 | 187 | 62.7 | 77.4 | 111 | 181 | 191 |
| COc1cc(Nc2ncc(F)c(Nc3ccc4c(n3)NC(=O)C(C)(C)O4)n2)cc(OC)c1OC [Tamatinib] + Cc1cc(N2CCOCC2)cc2[nH]c(-c3c(NC[C@@H](O)c4cccc(Cl)c4)cc[nH]c3=O)nc12 [BMS536924] (first compound 0.4 µM, partner dose 0.2 µM) | 133 | 260 | 127 | 184 | 169 | 204 | 586 | 238 | 155 | 225 | 128 | 308 | 56.5 | 124 | 158 | 76.1 | 164 | 166 | 154 |
| COc1cc(Nc2ncc(F)c(Nc3ccc4c(n3)NC(=O)C(C)(C)O4)n2)cc(OC)c1OC [Tamatinib] + Cc1ccc(NC(=O)c2cccc(N(C)C)c2)cc1NC(=O)c1ccc(O)cc1 [ZM336372] (first compound 0.4 µM, partner dose 2 µM) | 219 | 94.5 | 126 | 80.3 | 132 | 110 | 147 | 72.5 | 159 | 234 | 117 | 204 | 158 | 94.1 | 69.8 | 162 | 73.6 | 110 | 274 |
| Cc1cc(N2CCOCC2)cc2[nH]c(-c3c(NC[C@@H](O)c4cccc(Cl)c4)cc[nH]c3=O)nc12 + COc1cc2c(Oc3ccc4[nH]c(C)cc4c3F)ncnc2cc1OCCCN1CCCC1 [cediranib] (first compound 0.2 µM, partner dose 0.4 µM) | 151 | 174 | 77.1 | 217 | 203 | 92.4 | 94.1 | 253 | 65.3 | 213 | 107 | 118 | 152 | 232 | 129 | 73.2 | 104 | 110 | 172 |
| NC(=O)Nc1cc(-c2cccc(F)c2)sc1C(=O)N[C@H]1CCCNC1 + CN(NC(=O)CC(=O)NN(C)C(=S)c1ccccc1)C(=S)c1ccccc1 [STA4783] (first compound 0.02 µM, partner dose 0.006 µM) | 178 | 90.3 | 162 | 82.9 | 186 | 207 | 265 | 107 | 134 | 64.3 | 100 | 209 | 48.6 | 111 | 26.8 | 59.8 | 25.8 | 43.9 | 144 |
| OCc1c[nH]c2ccccc12 [Indole-3-carbinol] + C=CCn1c(=O)c2cnc(Nc3ccc(N4CCN(C)CC4)cc3)nc2n1-c1cccc(C(C)(C)O)n1 [MK1775] (first compound 0.8 µM, partner dose 0.02 µM) | 46.6 | 130 | 39.6 | 111 | 89.9 | 61.2 | 133 | 119 | 64.5 | 104 | 49.6 | 90.1 | 43.6 | 33.4 | 78.3 | 156 | 193 | 46.5 | 222 |
| Nc1cccc2c1CN(C1CCC(=O)NC1=O)C2=O (configuration not stated) [lenalidomide] + Cc1cc(N2CCOCC2)cc2[nH]c(-c3c(NC[C@@H](O)c4cccc(Cl)c4)cc[nH]c3=O)nc12 [BMS536924] (first compound 1 µM, partner dose 0.2 µM) | 28.8 | 122 | 75.5 | 104 | 49.1 | 185 | 84.7 | 217 | 74.2 | 82.4 | 76.3 | 136 | 84.4 | 130 | 113 | 67.9 | 112 | 48.1 | 182 |
| NC(=O)Nc1cc(-c2cccc(F)c2)sc1C(=O)N[C@H]1CCCNC1 + O=C(O)c1ccc(-c2c[nH]c3ncc(-c4ccccc4)cc23)cc1C1CCCC1 [GSK650394] (first compound 0.02 µM, partner dose 0.16 µM) | 105 | 111 | 105 | 80.9 | 48.5 | 92.4 | 40.6 | 400 | 49.2 | 79.8 | 42.5 | 98.9 | 250 | 27.5 | 95.5 | 220 | 247 | 66.8 | 164 |
| Cn1nnc2c(C(N)=O)ncn2c1=O [temozolomide] + O=C(CCCCCCC(=O)Nc1ccccc1)NO [vorinostat] (first compound 2 µM, partner dose 0.08 µM) | 172 | 43.5 | 80.9 | 38.9 | 90.1 | 103 | 185 | 91.3 | 126 | 68.6 | 64.9 | 74.6 | 97.3 | 41.5 | 63.1 | 63.8 | 176 | 129 | 84 |
| Cc1cc(N2CCOCC2)cc2[nH]c(-c3c(NC[C@@H](O)c4cccc(Cl)c4)cc[nH]c3=O)nc12 + O=C(Nc1cccc(Cl)c1)Nc1ncc(CCNc2ncnc3ccsc23)s1 [SNS314] (first compound 0.2 µM, partner dose 0.0008 µM) | 122 | 157 | 100 | 36.6 | 105 | 99.6 | 68.2 | 23.4 | 27.8 | 122 | 118 | 140 | 39.5 | 43.1 | 94.8 | 71.4 | 37.6 | 122 | 87.8 |
| NC(=O)Nc1cc(-c2cccc(F)c2)sc1C(=O)N[C@H]1CCCNC1 + NCC(=O)Nc1ccc(-n2nc(C(F)(F)F)cc2-c2ccc3c(ccc4ccccc43)c2)cc1 [OSU03012] (first compound 0.02 µM, partner dose 1 µM) | 159 | 54.1 | 34.7 | 122 | 177 | 213 | 70.8 | 50.6 | 221 | 67.5 | 360 | 168 | 71.5 | 148 | 366 | 134 | 69.3 | 112 | 131 |

Single entries from the results shown.
Entry for Cc1cc(N2CCOCC2)cc2[nH]c(-c3c(NC[C@@H](O)c4cccc(Cl)c4)cc[nH]c3=O)nc12 + COc1cc2c(Oc3ccc4[nH]c(C)cc4c3F)ncnc2cc1OCCCN1CCCC1 [cediranib] (first compound 0.2 µM, partner dose 0.4 µM) under cleaved PARP positive nuclei fraction (COLO829) [%]: 77.1
Entry for Cn1c(Nc2ccc(C(F)(F)F)cc2)nc2cc(Oc3ccnc(-c4ncc(C(F)(F)F)[nH]4)c3)ccc21 + NCC(=O)Nc1ccc(-n2nc(C(F)(F)F)cc2-c2ccc3c(ccc4ccccc43)c2)cc1 [OSU03012] (first compound 0.08 µM, partner dose 1 µM) under cleaved PARP positive nuclei fraction (RPMI7951) [%]: 214
